This note sets out measurements from PubChem BioAssay AID493014 (National Center for Advancing Translational Sciences (NCATS), 2011).

A word on the AC50: it is the concentration giving half of the maximal activity seen.

The other results are listed elsewhere or left out. The main result of the screen is listed elsewhere. These columns were measured beside it and carry no call. Compounds called inactive in the main read-out are mostly missing here. Potencies come from curve fits of mixed quality, noted in brackets.

The nature of this experiment: qHTS Assay to Find Inhibitors of Chronic Active B-Cell Receptor Signaling. As to conditions: ABC-DLBCL IkBa-CBG/CBR reporter, luminescence ratio (green luciferase fused to IkBa over red control in TMD8 lymphoma cells), 4 h. In short, it runs like this:
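Concentration-response series (up to 46 uM) were applied to TMD8 dual-reporter cells for 4 h at 37C with doxycycline. Green/red ratio, after filter-overlap correction, defined %Activity; red signal alone was normalised to basal cells and zero luminescence.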
(In general: Quantitative high-throughput screening tests each substance at several concentrations.)

[1] abbreviates: measured here: CBR red luminescence, cell number.
Setting [2] is: measured here: IkBa-CBG green luminescence.

In the case of `Cc1c(OC(C)C(=O)NCc2ccccn2)ccc2c3c(c(=O)oc12)CCC3` (stereo not given), the AC50 under setting [1] is 3.55 µM [rising, single point].

Turning to `Cc1ccc2c(C)nc(N/C(N)=N/S(=O)(=O)c3ccc([N+](=O)[O-])cc3)nc2c1`, under setting [1], the AC50 was 10.3 µM [rising, partial curve, poor fit].

On to `COc1cc(-c2cc(C(=O)Nc3ccc(C)c(S(=O)(=O)N4CCOCC4)c3)c3ccccc3n2)cc(OC)c1OC`, for which the AC50 under setting [1] is 0.103 µM [rising, full curve, poor fit].

`O=C(Cn1cccc1)Nc1ccc(OC(F)(F)F)cc1`: the AC50 under setting [1] was 2.24 µM [rising, full curve, poor fit].

Consider `CCN(CC(=O)NC(C)C)Cc1nc2c(Br)cc(Br)cc2c(=O)[nH]1`, for which, under setting [1], the AC50 was 11.2 µM [falling, partial curve].

With `CN(C)S(=O)(=O)n1cc(/C=C(\NC(=O)c2ccccc2F)C(=O)NCCCn2ccnc2)c2ccccc21`, under setting [1], the AC50 is 14.1 µM [falling, partial curve, poor fit].

As to `OC(c1cc(C(F)(F)F)nc2c(C(F)(F)F)cccc12)C1CCCCN1` (stereo not given), the AC50 is 23.1 µM [falling, partial curve, poor fit] under setting [1] and 1.84 µM [rising, full curve, poor fit] under setting [2].

For `Clc1ccc(OCCN2CCOCC2)cc1Cl`, under setting [1], the AC50 was 29.1 µM [rising, single point].

As for `Cc1ccc(S(=O)(=O)N2CCCC(C(=O)Nc3cccnc3)C2)cc1` (stereo not given), the AC50 under setting [1] was 20.6 µM [falling, single point].

`COc1cc(N=Cc2c(O)c3ccccc3oc2=O)c(OC)cc1Cl`: under setting [1], the half-maximal activity concentration (AC50) is 1 µM [falling, full curve, poor fit].

For `COc1ccccc1N1CCN(C(=O)c2cc3c(=O)n4ccccc4nc3s2)CC1`, the AC50 under setting [1] is 1.3 µM [rising, full curve].

Take `Cc1c(NC(=O)/C(C#N)=C/c2ccc(-c3ccc(Cl)cc3)o2)c(=O)n(-c2ccccc2)n1C`: under setting [1], the AC50 is 20.6 µM [falling, single point].

Consider `COc1ccc(/C=C/c2nc3ccccc3n2C)cc1`, for which the AC50 under setting [1] is 10 µM [falling, partial curve, poor fit].

Regarding `CCOC(=O)c1ccccc1NC(=O)c1cc2ccccc2o1`, the AC50 under setting [1] is 0.398 µM [falling, full curve, poor fit].

Take `O=C(NC1CC2CCCC(C1)N2C(=O)NC1CCCCC1)c1ccccc1` (stereo not given): the AC50 under setting [1] is 20.6 µM [falling, single point].

As for `Fc1ccc(CO/N=C/C2=C(Cl)c3ccccc3CC2)cc1`, under setting [1], the AC50 is 22.4 µM [rising, single point].

`COc1ccc(Br)cc1S(=O)(=O)N1CCOCC1`: the concentration at half-maximal activity (AC50) under setting [1] is 20.6 µM [rising, single point].

`O=C(NNc1ncnc2sccc12)c1ccc(Cl)cc1`: the AC50 under setting [1] was 15.8 µM [falling, single point].

On to `Cc1ccc(C)c(C(=O)CSc2nc3ccccc3c(=O)[nH]2)c1`, for which, under setting [1], the AC50 was 10 µM [rising, partial curve, poor fit].

On to `CC(=O)c1ccccc1NC(=O)COC(=O)c1ccccc1NC(=O)c1ccccc1`, for which, under setting [1], the AC50 was 4.61 µM [falling, partial curve].

Regarding `CCOc1ccc(N=C(/C(C(=O)C(=O)N2CCOCC2)=C(/O)c2ccccc2)c2ccccc2)cc1`, under setting [1], the AC50 is 15.8 µM [falling, partial curve, poor fit].

For the compound `O=c1c2cn[nH]c2nc(SCc2ccc3c(c2)OCCO3)n1-c1ccccc1`, the AC50 under setting [1] is 20.6 µM [falling, single point].

Turning to `CC(=O)CC1(C)OC(N)=C(C#N)C1(C#N)C#N` (stereo not given), under setting [1], the AC50 is 35.5 µM [falling, single point].

As to `COc1ccc2cc(C(=O)/C=C/c3cc(OC)c(O)c(OC)c3)ccc2c1`, the AC50 under setting [1] is 20 µM [falling, partial curve, poor fit].

Take `COc1cc(OC)cc(C(=O)Nc2cccc(NC(=O)c3ccccc3)c2)c1`: the AC50 under setting [1] is 15.8 µM [falling, partial curve].

`O=C(NC(=S)Nc1cccc(NC(=O)c2ccccc2Cl)c1)c1cccs1`: under setting [1], the half-maximal activity concentration (AC50) is 2.31 µM [falling, full curve].

Consider `c1ccc(-c2noc(-c3cccs3)n2)nc1`, for which the AC50 under setting [1] is 25.9 µM [falling, single point].

For `Cc1cccc(C)c1NC(=O)C(=O)c1cn(C)c2ccccc12`, the AC50 under setting [1] was 12.6 µM [falling, partial curve, poor fit].

For `Cn1c(CNC(=O)c2ccco2)nnc1SCC(=O)c1ccc(Br)cc1`, the AC50 under setting [1] is 1.26 µM [rising, full curve, poor fit].

Consider `O=C(O)c1cc(N/N=C/C=C/c2ccccc2)ccc1Cl`, for which the AC50 under setting [1] was 3.16 µM [falling, partial curve].

Consider `CSc1nc(C)c2c(c1C#N)CCCC2`, for which the AC50 by setting is: under setting [1], 29.1 µM [rising, partial curve, poor fit]; under setting [2], 20.6 µM [falling, single point].

`COc1ccc([C@H]2[C@H](C(=O)C(C)(C)C)N3N=Cc4ccccc4C3C23C(=O)OC(C)(C)OC3=O)cc1` (stereo not given in full): the AC50 under setting [1] is 0.461 µM [rising, partial curve, poor fit].

Regarding `COc1ccc(C2CC(=O)c3cnc(NC(=O)c4cc(OC)cc(OC)c4)nc3C2)cc1` (stereo not given), the AC50 under setting [1] was 11.2 µM [falling, partial curve].

Turning to `O=C(Nc1ccccc1)Nc1ccc2ocnc2c1`, the AC50 under setting [1] is 20 µM [falling, single point].

For the compound `Cc1cc(C)c2c(=O)[nH]n(C3CC(C)N(C)CC3C)c2n1` (stereo not given), the AC50 under setting [1] is 25.9 µM [rising, single point].

As for `CC1CCC(NC(=O)Nc2cccs2)CC1` (stereo not given), the AC50 under setting [1] was 0.82 µM [rising, full curve, poor fit].

In the case of `COc1ccc(N2C(=O)C3C(C2=O)C(C(=O)c2ccc(Cl)cc2)N2CCCC32)cc1` (stereo not given), under setting [1], the AC50 was 28.2 µM [falling, single point].

Consider `CC(CC(=O)N(C)c1c(N)n(Cc2ccccc2)c(=O)[nH]c1=O)c1ccccc1` (stereo not given), for which, under setting [1], the AC50 was 0.291 µM [rising, full curve, poor fit].

For the compound `CCN(CC(=O)NC(C)(C)C)C(=O)COc1c(Cl)cc(Cl)c2ccc(C)nc12`, the AC50 reads like this: under setting [1], 35.5 µM [rising, single point]; under setting [2], 35.5 µM [falling, single point].

On to `CC1CCCN(CCOCCOc2ccc(Cl)cc2Br)C1` (stereo not given), for which the AC50 under setting [1] is 4.47 µM [falling, partial curve].

As to `CCCOc1cccc(C(=O)Nc2ccc3c(c2)OCCO3)c1`, under setting [1], the AC50 is 20 µM [falling, partial curve, poor fit].

Take `O=C(O)c1ccccc1C(=O)c1ccc(Sc2ccc(Cl)cc2)c([N+](=O)[O-])c1`: the AC50 under setting [1] is 14.1 µM [falling, single point].

In the case of `O=C(NCc1ccccn1)C1CCN(Cc2cnn(-c3ccccc3)c2-n2cccc2)CC1`, under setting [1], the AC50 is 6.51 µM [rising, single point].

On to `COc1ccccc1Oc1ccc(S(=O)(=O)NCc2ccccn2)cc1`, for which the half-maximal activity concentration (AC50) under setting [1] is 0.92 µM [rising, partial curve].

With `COc1ccccc1C(=O)Nc1nc(N)n(-c2ccccc2)n1`, the concentration at half-maximal activity (AC50) under setting [1] is 35.5 µM [falling, single point].

Turning to `CCOC(=O)c1c(NC(=O)c2cccs2)sc2c1CC(C)(C)OC2`, under setting [1], the AC50 is 11.2 µM [rising, partial curve, poor fit].

As to `COCCC(=O)N1CCC(Oc2ccc(C(=O)NCc3ncc(C)[nH]3)cc2)CC1`, the AC50 under setting [1] was 3.16 µM [falling, single point].

With `CCc1ccc(N2C(=O)CN(Cc3ccccc3)C2=S)cc1`, the AC50 under setting [1] is 35.5 µM [rising, single point].

In the case of `O=C1OC[C@@H]2CCCN2C(=O)[C@@H](CC(=O)N(CCO)Cc2ccccc2)C/C=C\CC[C@H]1Cc1ccc(F)cc1`, under setting [1], the AC50 was 8.2 µM [falling, partial curve, poor fit].

With `Cc1ccc(-c2cc(C(=O)NC(C)c3ccccc3)c3ccccc3n2)cc1C` (stereo not given), under setting [1], the AC50 was 15.8 µM [rising, single point].

Take `O=C(N/N=C/C=C/c1ccccc1)c1ccccn1`: the AC50 under setting [1] is 7.94 µM [falling, partial curve, poor fit].

For the compound `CCCS(=O)(=O)c1ncc(Cl)c(C(=O)N2CCN(c3ccc(OC)cc3)CC2)n1`, under setting [1], the AC50 is 35.5 µM [falling, single point].

In the case of `Cc1c(C)n(CCN(C)C)c2ncnc(NCc3ccccc3)c12`, the AC50 under setting [1] was 20 µM [rising, single point].

As for `O=C1c2ccccc2S(=O)(=O)c2cc(C(=O)N(c3ccccn3)c3ccccn3)ccc21`, the AC50 runs as follows: under setting [1], 20.6 µM [rising, partial curve]; under setting [2], 14.6 µM [falling, partial curve, poor fit].

In the case of `COc1ccc(C(=O)/C=C/c2ccccc2C(F)(F)F)cc1`, under setting [1], the AC50 was 10 µM [falling, partial curve, poor fit].

Consider `COCCN(C(=O)c1ccco1)C(C(=O)NC1CCCC1)c1cccs1` (stereo not given), for which the AC50 under setting [1] was 9.2 µM [rising, partial curve, poor fit].

Consider `CC(=O)Nc1cccc(C(=O)N(CCc2ccccc2)Cc2ccccc2)c1`, for which the AC50 under setting [1] was 0.447 µM [rising, full curve, poor fit].

Consider `COC(=O)c1ccc(NC(=O)c2ccc(NC(=O)c3ccco3)cc2)cc1`, for which the AC50 under setting [1] was 10 µM [falling, partial curve, poor fit].

As to `CCC(C)N(C(=O)COC(=O)c1ccccc1SCC(=O)N1CCCC1)C1CCS(=O)(=O)C1` (stereo not given), the AC50 under setting [1] was 12.6 µM [falling, partial curve, poor fit].

Take `Cc1ccc(C(=O)OC/C(O)=C(\C#N)c2nc3ccccc3[nH]2)cc1S(=O)(=O)N1CCOCC1`: the AC50 under setting [1] was 16.4 µM [falling, partial curve].

Consider `COc1ccc(C2C(C(=O)Nc3cccc(C)n3)c3ccccc3C(=O)N2C)cc1` (stereo not given), for which the AC50 under setting [1] was 17.8 µM [rising, partial curve, poor fit].
